Source: PubChem BioAssay AID200 (DTP/NCI, 2004)
The list shows only some results of the screen, not a fair sample: it gathers tests that were run many times, whatever their T/C, doses with no T/C, and many T/C values between a quarter and a half above the control. Other doses and runs of a compound stand elsewhere. T/C: endpoint of the treated group in % of that of the vehicle group. Some doses have a count of surviving animals in place of a T/C: the source files T/C as zero there, which appears to mark a toxic dose or a test without result, not a measured value. Some survivor counts are full or nearly so, which does not show that the dose was tolerated: survival well below the control is almost never listed, so the zero probably covers shortened survival too. Counts of survivors are from the toxicity check (mostly the fifth day) where no day follows; animals may have died later. Schedules are NCI's codes, read here as Q, the interval in days (D) or hours (H), X, the number of doses. Some doses were run more than once; the values are given in rising order. Where survival is the endpoint, the PubChem record calls one and a half times the control and up active, and a quarter to a half above the control has no call in these data; cut-offs in other NCI protocols can differ. Some T/C values carry the count of animals alive at the toxicity check (mostly the fifth day); where none is given, no animal had died by that day.

System: B6C3F1 mice, B16 melanoma ip, median survival T/C
Assay: NCI In Vivo Anticancer Drug Screen. Data for tumor model B16 Melanoma (intraperitoneal) in B6C3F1 mice
Conditions: T/C endpoint: median survival time, higher T/C = longer survival
In short: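 Readout: survival or tumor size in treated mice relative to vehicle controls (T/C). Model uses transplantable tumors grown in mice.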

[1] = dose: 100.0 mg/kg/injection, schedule: Q01DX009 (ip), vehicle: saline with Tween-80
[2] = dose: 200.0 mg/kg/injection, schedule: Q01DX009 (ip), vehicle: saline with Tween-80
[3] = dose: 25.0 mg/kg/injection, schedule: Q01DX009 (ip), vehicle: distilled water + Tween-80
[4] = dose: 50.0 mg/kg/injection, schedule: Q01DX009 (ip), vehicle: distilled water + Tween-80
[5] = dose: 100.0 mg/kg/injection, schedule: Q01DX009 (ip), vehicle: distilled water + Tween-80
[6] = dose: 6.25 mg/kg/injection, schedule: Q01DX009 (ip), vehicle: saline
[7] = dose: 200.0 mg/kg/injection, schedule: Q01DX009 (ip), vehicle: saline
[8] = dose: 25.0 mg/kg/injection, schedule: Q01DX009 (ip), vehicle: suspension in saline
[9] = dose: 50.0 mg/kg/injection, schedule: Q01DX009 (ip), vehicle: saline
[10] = dose: 50.0 mg/kg/injection, schedule: Q01DX009 (ip), vehicle: suspension in saline
[11] = dose: 100.0 mg/kg/injection, schedule: Q01DX009 (ip), vehicle: water

C/C=C(\C)c1cc(=O)c2c(C)cc3c(c2o1)C(=O)c1c(O)c(C2CC(C)(N(C)C)C(OC(C)=O)C(C)O2)cc(C2CC(N(C)C)C(O)C(C)O2)c1C3=O (stereo unspecified)
T/C (dose: 0.31 mg/kg/injection, schedule: Q01DX009 (ip), vehicle: saline): 133 % of control | T/C (dose: 0.62 mg/kg/injection, schedule: Q01DX009 (ip), vehicle: saline): 140 % of control [9 of 10 alive] | T/C (dose: 1.25 mg/kg/injection, schedule: Q01DX009 (ip), vehicle: saline): 138 % of control | T/C (dose: 1.25 mg/kg/injection, schedule: Q01DX009 (ip), vehicle: suspension in saline): 127 % of control | T/C (dose: 2.5 mg/kg/injection, schedule: Q01DX009 (ip), vehicle: suspension in saline): 136 % of control | T/C (dose: 5.0 mg/kg/injection, schedule: Q01DX009 (ip), vehicle: suspension in saline): 125 % of control

COc1c(O)c2c(c3cc(C(=O)N4CCc5c4c(O)c(OC)c4[nH]c(C(=O)N6CC7CC78C6=CC(=O)c6[nH]cc(C)c68)cc54)[nH]c13)CCN2C(N)=O (stereo unspecified)
T/C (dose: 6.25 micrograms/kg/injection, schedule: Q01DX009 (ip), vehicle: DMSO): 126 % of control | T/C (dose: 12.5 micrograms/kg/injection, schedule: Q01DX009 (ip), vehicle: DMSO): 129 % of control | T/C (dose: 25.0 micrograms/kg/injection, schedule: Q01DX009 (ip), vehicle: DMSO): 126 % of control | T/C (dose: 50.0 micrograms/kg/injection, schedule: Q01DX009 (ip), vehicle: DMSO): 133 % of control | survivor count (dose: 100.0 micrograms/kg/injection, schedule: Q01DX009 (ip), vehicle: DMSO): 9 of 10 | survivor count (dose: 200.0 micrograms/kg/injection, schedule: Q01DX009 (ip), vehicle: DMSO): 8 of 10

CC(C)(C)OC(=O)NC(Cc1c[nH]c2ccccc12)C(=O)ON1C(=O)CCC1=O (stereo unspecified)
survivor count (dose: 50.0 mg/kg/injection, schedule: Q01DX009 (ip), vehicle: saline with Tween-80): 10 of 10 | survivor count [1]: 10 of 10 | survivor count [2]: 10 of 10

CC1=C[S+](c2ccccc2)c2cccc3cc4ccccc4c1c23 (stereo unspecified)
survivor count (dose: 4.0 mg/kg/injection, schedule: Q01DX009 (ip), vehicle: saline with Tween-80): 9 of 10 | survivor count (dose: 8.0 mg/kg/injection, schedule: Q01DX009 (ip), vehicle: saline with Tween-80): 6 of 10

O=C(Nc1ccc(C(=O)O)cc1)Nc1nccs1
T/C [3]: 130 % of control | T/C [4]: 127 % of control | T/C [5]: 137 % of control | T/C (dose: 200.0 mg/kg/injection, schedule: Q01DX009 (ip), vehicle: distilled water + Tween-80): 128 % of control

CC(=O)OCC1OC(n2ccc(N)nc2=O)C(OC(C)=O)C1OC(C)=O (stereo unspecified)
survivor count (dose: 400.0 mg/kg/injection, schedule: Q01DX009 (ip), vehicle: saline): 9 of 10

CC(C)(C)OC(=O)NC(Cc1ccc(O)cc1)C(=O)ON1C(=O)CCC1=O (stereo unspecified)
survivor count (dose: 400.0 mg/kg/injection, schedule: Q01DX009 (ip), vehicle: Klucel (hydroxypropylcellulose) (HPC)): 9 of 10

ClC1=C(Cl)C2(Cl)C3C(Cl)C(Cl)CC3C1(Cl)C2(Cl)Cl (stereo unspecified)
survivor count (dose: 200.0 mg/kg/injection, schedule: Q01DX009 (ip), vehicle: other): 8 of 10 | survivor count (dose: 400.0 mg/kg/injection, schedule: Q01DX009 (ip), vehicle: other): 0 of 10

Cc1ncc(O)c(CO)c1O
survivor count [6]: 10 of 10

COc1cccc2c1C(=O)c1c(O)c3c(c(O)c1C2=O)C[C@@](O)(C(=O)CO)C[C@@H]3OC1CC(OC(C)=O)C(OC(C)=O)C(C)O1 (stereo partly specified)
T/C (dose: 3.12 mg/kg/injection, schedule: Q01DX009 (ip), vehicle: distilled water + Tween-80): 149 % of control | T/C (dose: 12.5 mg/kg/injection, schedule: Q01DX001 (ip), vehicle: distilled water + Tween-80): 126 % of control | survivor count (dose: 12.5 mg/kg/injection, schedule: Q01DX009 (ip), vehicle: distilled water + Tween-80): 10 of 10 | survivor count [3]: 9 of 10 | survivor count [4]: 10 of 10 | survivor count (dose: 100.0 mg/kg/injection, schedule: Q01DX001 (ip), vehicle: distilled water + Tween-80): 5 of 10 and 10 of 10 | survivor count [5]: 9 of 10 | survivor count (dose: 200.0 mg/kg/injection, schedule: Q01DX001 (ip), vehicle: distilled water + Tween-80): 4 of 10 and 10 of 10

COC(=O)Nc1cn2ccc(Sc3ccccc3)cc2n1
survivor count (dose: 200.0 mg/kg/injection, schedule: Q01DX009 (ip), vehicle: Klucel (hydroxypropylcellulose) (HPC)): 10 of 10

CC(=O)Oc1[nH]c(=O)c2cccc3c2c1CCC3
survivor count (dose: 800.0 mg/kg/injection, schedule: Q01DX009 (ip), vehicle: saline with Tween-80): 9 of 10

Cc1ccc(Cl)c2ccccc12
survivor count (dose: 12.5 mg/kg/injection, schedule: Q01DX009 (ip), vehicle: saline with Tween-80): 10 of 10 | survivor count [1]: 9 of 10 | survivor count [2]: 10 of 10 | survivor count (dose: 400.0 mg/kg/injection, schedule: Q01DX009 (ip), vehicle: saline with Tween-80): 2 of 10 and 8 of 10

Oc1ccccc1C=NCCC[N-]CCCN=Cc1ccccc1O.[Co]
survivor count (dose: 100.0 mg/kg/injection, schedule: Q01DX009 (ip), vehicle: saline): 10 of 10 | survivor count (dose: 200.0 mg/kg/injection, schedule: Q01DX008 (ip), vehicle: saline): 4 of 10 | survivor count [7]: 0 of 10

NNC(=S)N/N=C/c1ccccn1
survivor count [8]: 8 of 10 | survivor count [9]: 0 of 10 | survivor count [10]: 0 of 10

O=C1CN(CCN2CC(=O)N(CN3CCOCC3)C(=O)C2)CC(=O)N1CN1CCOCC1
T/C (dose: 50.0 mg/kg/injection, schedule: Q01DX009 (ip), vehicle: water): 131 % of control | T/C [11]: 140 and 145 % of control | survivor count [11]: 10 of 10 | survivor count (dose: 200.0 mg/kg/injection, schedule: Q01DX009 (ip), vehicle: water): 4 of 10 and 8 of 10 | survivor count (dose: 400.0 mg/kg/injection, schedule: Q01DX009 (ip), vehicle: water): 0 of 10

CC(=O)NC(CCc1ccc(Cl)c(Cl)c1)c1cccc(O)c(=O)c1 (stereo unspecified)
survivor count (dose: 100.0 mg/kg/injection, schedule: Q01DX009 (ip), vehicle: Klucel (hydroxypropylcellulose) (HPC)): 10 of 10

Cc1c2cc[n+](CCN3CCCCC3)cc2c(C)c2c1[nH]c1ccc(O)cc12
T/C (dose: 1.56 mg/kg/injection, schedule: Q01DX009 (ip), vehicle: suspension in saline): 136 % of control | T/C (dose: 3.12 mg/kg/injection, schedule: Q01DX009 (ip), vehicle: suspension in saline): 141 % of control | T/C [6]: 140 % of control | T/C (dose: 12.5 mg/kg/injection, schedule: Q01DX009 (ip), vehicle: saline): 138 and 146 % of control | survivor count [8]: 10 of 10 | survivor count [9]: 8 of 8 | survivor count [10]: 10 of 10

OCC1(CO)COC2(CCCCC2)N1
T/C [7]: 134 % of control

CC1=CC2c3cccc4[nH]cc(c34)CC2N(C)C1 (stereo unspecified)
survivor count (dose: 40.0 mg/kg/injection, schedule: Q01DX009 (ip), vehicle: suspension in saline): 2 of 10
